Reference: patent publication US8492521B2, “Oxidative stress responsive apoptosis inducing protein eIF5A” (priority 2008, dated 2013)
For at least one compound, name, drawing or mass did not settle the structure.

Tested on: rat myocardial ischemia/reperfusion injury
Experiment: Rat myocardial ischemia/reperfusion injury, extent of myocardial infarction (TTC staining)
Type: in vivo
Conditions: 1 mg/kg everyday, peritoneal, five days to the day before ischemia/reperfusion
Protocol: Rats (male, 250 to 280 g) were subjected to coronary artery ligation according to J. Pathol. 180, 305-310 (1996). Briefly, rats were anesthetized with sodium pentobarbital (40 mg Kg^−1, intraperitoneally), intubated, and ventilated with room air (tidal volume, 20 ml/Kg, […]) with a respirator (SN-480-7, Shinano Manufacturing Co., Ltd., Tokyo, Japan). After lateral thoracotomy and pericardiectomy, a 6-0 silk stitch was placed near the intramyocardial location of the left coronary artery beneath the left atrial appendage. Coronary artery occlusion was performed by pressing a short length of tube over the ends of the suture and clamping it firmly against the heart. Reperfusion was achieved by removing the clamp. The standard limb lead II electrocardiogram was monitored continuously. The ischemia and reperfusion of the regional myocardium were confirmed by following the changes of the ST segment level on the electrocardiogram and observing the change in the color of the myocardium.
eIF5A is deoxyhypusinated by deoxyhypusine synthase (DHS) in the cytoplasm (deoxyhypusine eIF5A) and then hypusinated by deoxyhypusine hydroxylase (DOHH) (hypusinated eIF5A). eIF5A is further secreted extracellularly by an oxidative stress stimulus as secreted eIF5A and acquire the apoptosis-inducing activity. […]

With `N=C(N)NCCCCCCCN` [GC7, N1-guanyl-1,7-diaminoheptane] the “extent of myocardial infarction relative to control group” value was “approx. 1/2.7”.
